Reference: patent publication US20240043512A1
No constants are given. Whether binding was seen depends on the method and setting. Some results given as binding are weak or reduced against the parent protein; the word gives no strength.

Columns and labels:
[1] = molecular target: T1, AS-SPIK (Abnormal Secreted SPIK), native, purified from the medium of S2-3 cells (human) (UniProt P00995); assay: binding test (FIG. 5)
T1 sequence: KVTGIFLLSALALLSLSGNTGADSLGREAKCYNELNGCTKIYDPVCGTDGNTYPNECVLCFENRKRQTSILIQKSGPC

[2] = molecular target: T1, AS-SPIK (Abnormal Secreted SPIK), native, purified from the medium of S2-3 cells (human); assay: ELISA, plate coated with native AS-SPIK, HRP-labelled antibody
[3] = molecular target: T1, AS-SPIK (Abnormal Secreted SPIK), native, purified from the medium of S2-3 cells (human); assay: sandwich ELISA on native AS-SPIK from S2-3 cells, capture antibody and HRP-labelled signal antibody

Measured: binding

B1: IM-A1 (antibody, V domains shown)
VH: QSVKESEGGLFKPTDTLTLTCTVSGFSLSSNAISWVRQAPGNGLEWIGAIGSSGSTYYASWAKSRSTVTRNTNLNTVTLKMTSLTAADTATYFCARWENIGYTNVRLDLWGQGTLVTVSS
VL: AYDMTQTPASVEVAVGGTVTIKCQASQSISTALAWYQQKPGQPPKLLIYGASTLASGVSSRFKGSGSGTQFTLTISGVECADAATYYCQQGYSTSDVDNAFGGGTEG
binds: [1] | [2] | [3]

B2: IM-B10 (antibody, V domains shown)
VH: QSVKESEGGLFKPTDTLTLTCTVSGFSLSSYGVSWVRQAPGKGLEWIGSIWSGGTTDYASWAKSRSTITRNTNENTVTLKVTSLTAADTATYFCARGGYDYGYASNIWGPGTLVTVSS
VL: AYDMTQTPASVEVAVGGTVTIKCQASESISSYLSWYQQKPGQPPKLLIYRASTLASGVPSRFSGSGSGTEFTLTISDGQCDDAATYYCQQGYSVSNVDNIFGGGTEVVVKG
binds: [1] | [2] | [3]

B3: IM-C6 (antibody, V domains shown)
VH: QSVKESEGGLFKPTDALTLTCTVSGFSLSSYAISWVRQAPGSGLEWIGAINTYGGTYYASWAKSRSTITRNTNENTVTLKMTSLTAADTATYFCARDFDSDAYTSASGGMDWGPGTLVTVSS
VL: AYDMTQTPASVEVAVGGTVTIKCQASQSINNYLSWYQQIPGQPPKLLIYRASTLASGVSSRFKGSGSGTQFTLTISGVQCADAATYYCQQGYTSNVDNVFGGGTEVVVKG
binds: [1] | [2] | [3]

B4: IM-E2 (antibody, V domains shown)
VH: QSVKESEGGLFKPTDTLTLTCTVSGFSLSAYAISWVRQAPGNGLEWIGAINSGGSAYYANWAKSRSTITRNTNLNTVTLKMTSLTAADTATYFCAREDIYDYGGAFDPWGPGTLVTVST
VL: AYDMTQTPASVEVTVGGTVTIKCQASQGISSYLSWYQQKPGQPPKLLIYAATTLVSGVSSRFKGSGSGTQFTLTISGVECADAATYYCQQDYTTSNVDNTFGGGTEVVVKG
binds: [1] | [2] | [3]
